The list shows a part of the results.

This assay can be described thus: Plasmodium liver-stage growth inhibition, dose response, imaging, Malaria Box, P. yoelii, HepG2-A16-CD81EGFP (AID 602156). The settings on record: P. yoelii liver stage in HepG2-A16-CD81EGFP, liver parasite size at 10 uM, stronger effect = lower value.
Regarding `CCCN(CCC)[P+](CC)(N(CCC)CCC)N(CCC)CCC`, the parasite size is 31.2 um.
